Source: PubChem BioAssay AID504808 (Drosophila RNAi Screening Center, 2011)

Assay: 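Fly genes required to hold E2F transcription in check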 (primary screen)
Cell system: Drosophila S2 cells
Knock-down reagent: long dsRNA against Drosophila genes
Measurement: 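Firefly luciferase driven by E2F sites, normalised to Renilla luciferase on the same minimal promoter, measured by plate reader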
Reading the numbers: E2F firefly: higher = more E2F reporter activity; Renilla normaliser: higher = more normaliser reporter signal
Hit rule: 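Called active if the normalised E2F reporter went up by over 50%; the cutoff is arbitrary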
The deposit covers about 21,000 reagents; this is a random part of those that have a named target and a result. Over the whole deposit, 18 (0.084%) were called active. 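Raw counts without plate normalisation, one of two replicates; the ratio scores behind the calls were not deposited.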 The numbers tell different reagents against one gene apart. A plus sign joins genes that one reagent is predicted to hit. Reagent sequences are not shown. The record does not give: the amount of reagent, the time to read-out.

no.	target gene	dsRNA no.	E2F firefly, rep 1	Renilla normaliser, rep 1	call
1	mael (GeneID 40489)	1	70168	3482	inactive
2	Cpr50Cb (GeneID 36525)	1	1.01e5	4255	inactive
3	CG10254 (GeneID 42793)	1	90741	3485	inactive
4	sqh (GeneID 31554)	1	8180	704	inactive
5	nudC (GeneID 39879)	1	1.42e5	7379	inactive
6	nudC (GeneID 39879)	2	1.54e5	8812	inactive
7	CG10638 (GeneID 39424)	1	97849	4925	inactive
8	CG42269 (GeneID 38689)	1	90415	3556	inactive
9	CG42269 (GeneID 38689)	2	1.05e5	3846	inactive
10	Phae1 (GeneID 34637)	1	1.06e5	3978	inactive
11	Dcps (GeneID 40711)	1	73895	4195	inactive
12	in (GeneID 40246)	1	1.33e5	6682	inactive
13	CG10508 (GeneID 40342)	1	92343	4169	inactive
14	CG10508 (GeneID 40342)	2	1.31e5	6926	inactive
15	LPCAT (GeneID 31899)	1	1.24e5	5043	inactive
16	LPCAT (GeneID 31899)	2	1.17e5	5757	inactive
17	CG13917 (GeneID 38186)	1	73295	3635	inactive
18	Tektin-C (GeneID 38653)	1	61968	3900	inactive
19	CG5079 (GeneID 43089)	1	60091	3810	inactive
20	CG3355 (GeneID 33667)	1	1.45e5	5115	inactive
21	Polr2I (GeneID 41741)	1	76750	5840	inactive
22	CG9920 (GeneID 41712)	1	1.08e5	5620	inactive
23	VGlut (GeneID 33427)	1	1.64e5	5576	inactive
24	Mitf (GeneID 3885647)	1	40839	3573	inactive
25	Mitf (GeneID 3885647)	2	72188	4397	inactive
26	CG31827 + CG18478	1	1.01e5	4163	inactive
27	gom (GeneID 43934)	1	1.05e5	4214	inactive
28	CG9497 (GeneID 33884)	1	98040	3502	inactive
29	CG4582 (GeneID 43086)	1	1.09e5	5485	inactive
30	CG8916 (GeneID 32553)	1	1.65e5	7010	inactive
31	Ets65A (GeneID 38700)	1	92941	3466	inactive
32	Ets65A (GeneID 38700)	2	90319	3804	inactive
33	Ets65A (GeneID 38700)	3	71988	3582	inactive
34	Cyp4d8 (GeneID 38841)	1	68673	3588	inactive
35	sqa (GeneID 36002)	1	3058	188	inactive
36	Noa36 (GeneID 43384)	1	1886	876	inactive
37	CG31678 (GeneID 35327)	1	77700	3163	inactive
38	CG31678 (GeneID 35327)	2	95771	3858	inactive
39	CG14036 (GeneID 33735)	1	1.55e5	5113	inactive
40	gt (GeneID 31227)	1	98592	4591	inactive
41	mre11 (GeneID 34565)	1	92944	3602	inactive
42	ems (GeneID 41697)	1	98832	6509	inactive
43	CG6901 (GeneID 41977)	1	1.09e5	6157	inactive
44	CG9467 (GeneID 41207)	1	70592	3932	inactive
45	CG33773 (GeneID 3772436)	1	85570	3005	inactive
46	Psc (GeneID 36431)	1	1.07e5	4197	inactive
47	shep (GeneID 38605)	1	94686	4373	inactive
48	shep (GeneID 38605)	2	99160	4301	inactive
49	shep (GeneID 38605)	3	74505	3734	inactive
50	CG10993 (GeneID 32344)	1	1.42e5	6274	inactive
51	CG15719 (GeneID 32249)	1	6479	365	inactive
52	CG12498 (GeneID 31272)	1	1.24e5	5888	inactive
53	CG4928 (GeneID 32682)	1	1.80e5	5648	inactive
54	CG14219 (GeneID 32951)	1	1.39e5	6795	inactive
55	ras (GeneID 43873)	1	7832	788	inactive
56	CG34199 (GeneID 5740128)	1	1.71e5	7260	inactive
57	Sps1 (GeneID 36587)	1	2881	215	inactive
58	FoxP (GeneID 41182)	1	1.39e5	5359	inactive
59	Sfp53D (GeneID 8673983)	1	1.82e5	6866	inactive
60	mRpS2 (GeneID 33688)	1	1.54e5	5083	inactive
61	Sbat (GeneID 319043)	1	1.39e5	6112	inactive
62	Nacalpha (GeneID 36409)	1	2421	183	inactive
63	Cmpk (GeneID 43165)	1	1907	1004	inactive
64	PIG-A (GeneID 37020)	1	71072	3488	inactive
65	CG11581 (GeneID 32362)	1	1.49e5	6028	inactive
66	BomBc3 (GeneID 50055)	1	1.31e5	7105	inactive
67	CG13566 (GeneID 37813)	1	92791	4190	inactive
68	Rgk2 (GeneID 37132)	1	1.40e5	4994	inactive
69	Obp56c (GeneID 170882)	1	1.55e5	4977	inactive
70	gskt (GeneID 318552)	1	80059	2473	inactive
71	CG7120 (GeneID 38954)	1	1.05e5	4734	inactive
72	GlyT (GeneID 37772)	1	92275	3902	inactive
73	CG14744 (GeneID 35858)	1	1.47e5	4406	inactive
74	Cpr47Ee (GeneID 36193)	1	75384	3769	inactive
75	CG42827 + CG42828	1	95424	5005	inactive
76	CG14868 (GeneID 41875)	1	46542	3772	inactive
77	l(3)72Dn (GeneID 39774)	1	83995	3300	inactive
78	snky (GeneID 39492)	1	1.17e5	5516	inactive
79	Bfc (GeneID 38138)	1	1.05e5	4714	inactive
80	CSN8 (GeneID 49077)	1	93785	3802	inactive
81	CG10814 (GeneID 36481)	1	2725	205	inactive
82	l(2)05287 (GeneID 35374)	1	81729	3286	inactive
83	l(2)05287 (GeneID 35374)	2	99716	5057	inactive
84	Usp7 (GeneID 32169)	1	84575	3063	inactive
85	Usp7 (GeneID 32169)	2	1.31e5	7005	inactive

In a second layout: results already given.
target gene	dsRNA no.	E2F firefly, rep 1	Renilla normaliser, rep 1	call
CG31827 + CG18478	1	1.01e5	4163	inactive
gom (GeneID 43934)	1	1.05e5	4214	inactive
CG9497 (GeneID 33884)	1	98040	3502	inactive
CG4582 (GeneID 43086)	1	1.09e5	5485	inactive
CG8916 (GeneID 32553)	1	1.65e5	7010	inactive
Ets65A (GeneID 38700)	1	92941	3466	inactive
Ets65A (GeneID 38700)	2	90319	3804	inactive
